## Screening data, single-dose tests

The chains behind the UniProt entries cited, without tags or fusion partners. Residues count along the entry.
UniProt A4I591, 1-473: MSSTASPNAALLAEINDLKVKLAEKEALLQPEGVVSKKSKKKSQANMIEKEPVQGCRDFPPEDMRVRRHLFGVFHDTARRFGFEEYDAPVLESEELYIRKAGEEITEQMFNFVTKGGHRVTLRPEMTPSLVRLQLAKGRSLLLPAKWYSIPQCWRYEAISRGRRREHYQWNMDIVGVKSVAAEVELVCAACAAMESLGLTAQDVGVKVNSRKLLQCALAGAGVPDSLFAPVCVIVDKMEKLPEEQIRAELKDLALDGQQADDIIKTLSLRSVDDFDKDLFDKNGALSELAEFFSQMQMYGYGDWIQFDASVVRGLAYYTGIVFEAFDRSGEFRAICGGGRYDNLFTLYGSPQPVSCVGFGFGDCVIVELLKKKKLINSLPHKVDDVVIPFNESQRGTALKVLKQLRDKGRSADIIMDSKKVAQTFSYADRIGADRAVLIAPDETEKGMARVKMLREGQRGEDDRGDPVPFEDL

Measurements from “University of Dundee, Small-Polar-MMV Screening Library” (2021), ChEMBL document CHEMBL3988442.

Each number is a percent effect as filed. The record does not define 0% and 100%; most values in the screen are far below 50% and negative numbers occur (in some assays of this library far below -100). The compounds are a random part of those screened.

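Enzyme assay of histidyl-tRNA synthetase; the read-out is not stated. Target: Histidine-tRNA ligase, Leishmania infantum (UniProt A4I591). Compounds at 30 µM. Direction is inferred from retests: higher values go with stronger inhibition. The assay is labelled LdHisRS but filed under L. infantum. Of about 69,000 compounds tested this way, about 410 (0.6%) reached 50% or more in at least one test.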

Cc1noc(C)c1CCC(=O)Nc1ccn(C)n1 gave -33.33%. CC(=O)N1CCC(c2cncc(Cl)n2)CC1 read 5.674%. Result for CCC(C)(NCC(=O)Nc1nc(C)cs1)c1nc(C)cs1 (stereo unspecified) was 11.32%. For O=C(Nc1cccnc1)[C@H]1C[C@@H]2CN(C(=O)NC3CCCC3)C[C@H]1O2 the result was 7.519%. c1cnn(CC2CN(Cc3csc(-c4ccsc4)n3)CCO2)c1 (stereo unspecified) gave 9.677%. For O=S1(=O)COCCN1CCOc1ccc(F)cc1 the result was 8.065%. CSCCC(Nc1nc(C)cc(C)n1)C(=O)NC1CC1 (stereo unspecified) gave 26.09%. CSc1ccsc1C(=O)NS(=O)(=O)c1cccc(C#N)c1 read 16%.

With O=C(NCc1ccco1)[C@H]1C[C@@H]2CCN(c3nncs3)C[C@H]2O1 the screen gave 19.44%. Cc1nn(C)c2c(NCc3ccccn3)ncnc12 gave 21.24%. Result for CN(c1ccc(C(=O)NCCCN2CCCCC2)c(Cl)c1)S(C)(=O)=O was 3.529%. CN(Cc1ccccc1NCc1cscn1)C(=O)c1cccs1 read 8.219%. Result for Fc1cnc(N2CCC3(COCc4cnc(NCC5CC5)nc43)C2)nc1 (stereo unspecified) was 0%. Result for Cc1cccc(CS(=O)(=O)Cc2ccn(C)c(=O)c2)c1 was 18.75%. With CCN(CC1CCCO1)C(=O)Nc1cc(OC)c(OC)cc1C (stereo unspecified) the screen gave 16.85%. For CCCNC(=O)N1CCC(Oc2cc(C)ccc2F)(C(=O)O)CC1 the result was 10.58%.

Result for COCCOC[C@]1(CNCc2cccc(OC)c2)C[C@@H](O)[C@@H](O)C1 was 22.22%. For COc1c(C)cnc(CN2CCn3c(nnc3C(C)C)C2)c1C the result was 15.93%. Cc1ccc(NC(=O)N2CC[C@@H](O)C2)c(-c2nc(C3CC3)no2)c1 read 17.39%. For CN(C)C(=O)c1cccnc1SCc1ccccc1Cl the result was 9.901%. Result for Cn1nc(Cn2cccc2)c2c1CN(Cc1ccsc1)C2 was 33.33%. CCN(CC(C)C#N)C(=O)CSc1ccc(C(F)(F)F)cn1 (stereo unspecified) read 26.03%. For CC(C)(C)CNC[C@H]1Cn2c(-c3ccccc3)cnc2CO1 the result was 9.459%. COc1nc2c(cc1C(=O)N(C)Cc1[nH]nc3c1CCC3)CCC2 gave 14.58%.

c1cncc(C2COC3(CCN(CC4CCOCC4)CC3)C2)c1 (stereo unspecified) gave 1.389%. Result for N#Cc1ccc(NCCC2CCN(CC(F)(F)F)CC2)nc1 was 17.65%. O=C(NCc1cn2c(n1)CN(Cc1nccs1)CC2)C1CCC1 gave 25.71%. Cc1cc(-c2cccc(-c3ccn(CCCO)n3)c2)nc(N(C)C)n1 read 7.143%. Result for Cc1cc2ccccc2n1CCC(=O)N1CCC[C@H]1C(N)=O was 23.14%. With CC(C)NS(=O)(=O)c1cc(C(=O)O)cc(-c2ccccc2CN(C)C)c1 the screen gave 11.32%. With O=C(NCCN1CCOCC1)c1nc2ccccc2c(=O)[nH]1 the screen gave 15.79%. With CC(=O)NCC(=O)N1Cc2nccn2CC(CN2CCCC2=O)C1 (stereo unspecified) the screen gave 20.59%.

For CC(C)CN(Cc1nc2c(cnn2C)c(=O)[nH]1)C(C)C the result was -6.383%. Cc1cc(C)nc(N2CCCC2c2[nH]ncc2C(=O)N(C)C)n1 (stereo unspecified) gave 7.092%. CSCCC1c2nc[nH]c2CCN1Cc1ccnc2ccccc12 (stereo unspecified) read 33.98%. For O=C(C(c1ccc(F)cc1)N1CCCCC1)N1CCn2cncc2C1 (stereo unspecified) the result was 9.333%. Result for Cc1nc(NC(=O)NCCCN2CCC(C(N)=O)CC2)sc1C was 18.07%. Result for CN(C)c1ccccc1C(=O)N1C[C@@H](CN2CCC(O)CC2)[C@@H](CO)C1 was 8.8%. Cc1cnn(Cc2ccc(NC(=O)N3CCCC3)cc2)c1 gave 18.58%. With Cc1ccc(C(=O)N2Cc3ccccc3C2)cc1N1CCNC1=O the screen gave 35.92%.

For CCN1CCCC1CNCc1cc2ccccc2[nH]c1=O (stereo unspecified) the result was 14.08%. For CN1CCCCCC1C(=O)N1CCN(c2ccccc2C#N)CC1 (stereo unspecified) the result was 26.51%. CCn1cc(NC(=O)C2CCC(=O)N2Cc2ccc(C)o2)cn1 (stereo unspecified) gave 32.26%. Result for CCn1ncnc1C1CC(=O)NCc2nc(N3CCCC3)sc21 (stereo unspecified) was 15.66%. Cc1c(Cl)cccc1NC(=O)N1CCC2(CC1)NC(=O)CC2C(=O)O (stereo unspecified) read 1.333%. With O=C1CCc2cc(S(=O)(=O)NC(=O)c3ccc4c(c3)CCO4)ccc2N1 the screen gave 12.8%. For Cc1ccc(-c2noc(C3CCN3C(=O)c3c(C)noc3C)n2)s1 (stereo unspecified) the result was 9.79%. With Cc1cnc(CNS(=O)(=O)CCC2CCCO2)o1 (stereo unspecified) the screen gave 5.263%.

With CCCN1CC2(CCN(C)CC2)CC1C(=O)NCCn1nc(C)nc1C (stereo unspecified) the screen gave 3.306%. With CN1CCCc2ccc(S(=O)(=O)NC(=O)C3CC=CC3)cc21 the screen gave 9.859%. Cc1ncsc1C(=O)N(Cc1cccnc1)C1CC1 read -27.66%. With O=C1NCc2ccccc2CC12CCN(Cc1c(F)cccc1Cl)C2 (stereo unspecified) the screen gave 16.55%. For Nc1nnc(Cn2nnc(-c3ccccc3F)n2)s1 the result was 8.929%. For Cc1noc(C(C)Nc2ccc3oc(C(C)C)nc3c2)n1 (stereo unspecified) the result was 106%. Cc1cc(CN2CCC(CNC(=O)c3nccc4ccccc34)C2)[nH]n1 (stereo unspecified) read 30.19%. Cc1nccn1C1CCCN(C(=O)c2cccc(S(C)(=O)=O)c2)C1 (stereo unspecified) gave 9.615%.

Result for COc1ccc(Nc2nc3c(C)nn(C)c3c(=O)n2C)c(OC)c1 was 17.92%. Result for CC(C)c1nccn1C1CCCN(C(=O)C2=NN(C)C(=O)CC2)C1 (stereo unspecified) was 9.649%. Result for Cc1noc(CCCC(=O)NC(C)c2nnc3n2CCCCC3)n1 (stereo unspecified) was 16.39%.

Some entries from above, unchanged:

| Compound | percent effect |
|---|---|
| `CCC(C)(NCC(=O)Nc1nc(C)cs1)c1nc(C)cs1` (stereo unspecified) | 11.32 |
| `CCN(CC1CCCO1)C(=O)Nc1cc(OC)c(OC)cc1C` (stereo unspecified) | 16.85 |
| `O=C1CCc2cc(S(=O)(=O)NC(=O)c3ccc4c(c3)CCO4)ccc2N1` | 12.8 |
| `CCn1ncnc1C1CC(=O)NCc2nc(N3CCCC3)sc21` (stereo unspecified) | 15.66 |